According to patent US11180761:
The exact form of at least one protein or probe is not confirmed.

Chains of the proteins cited; added tags and fusions are not shown. Residues count along the entry.
UniProt P16234, 24-524: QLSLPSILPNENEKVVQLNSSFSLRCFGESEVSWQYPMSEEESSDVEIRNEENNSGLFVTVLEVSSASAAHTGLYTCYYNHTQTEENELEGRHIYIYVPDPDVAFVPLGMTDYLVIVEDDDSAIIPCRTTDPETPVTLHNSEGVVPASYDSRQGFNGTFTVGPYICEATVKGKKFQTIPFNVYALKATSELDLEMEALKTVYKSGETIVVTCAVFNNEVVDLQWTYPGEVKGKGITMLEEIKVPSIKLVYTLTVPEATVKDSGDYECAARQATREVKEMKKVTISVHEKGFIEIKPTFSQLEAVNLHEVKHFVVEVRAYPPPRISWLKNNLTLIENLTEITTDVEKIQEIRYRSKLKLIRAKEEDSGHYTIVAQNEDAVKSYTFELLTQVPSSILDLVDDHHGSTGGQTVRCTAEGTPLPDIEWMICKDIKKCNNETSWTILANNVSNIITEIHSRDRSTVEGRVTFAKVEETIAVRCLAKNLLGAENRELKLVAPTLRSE

Molecular target: PDGFR-alpha (PDGFRA) extracellular domain (UniProt P16234)
Assay: SELEX
Settings: 2'-F pyrimidines (2'-F U and 2'-F C); clone from pool after 12 rounds; 30 mM Tris-HCl, 150 mM NaCl, 1.5 mM MgCl2, 2 mM DTT, 1% BSA, room temperature; no individual affinity given; purified recombinant protein; protein details: His tag, Sino Biological 10556-H08H

GGGAGAGCGGAAGCGUGCUGGGCCUAUUGCAUCUUUCUGUUAUUUCCGAAUCCGUCCCGACUGUCAUAACCCAGAGGUGAUGGAUCCCCC [PDR9]
selection result: selected
